These are yes or no findings as the source states them, for the method shown. In cells and extracts the contact can be indirect. Some binding calls cover weakened binding; strength is not graded here.

By UniProt entry, the sequences of proteins in these tests, tags left out.
UniProt Q15014: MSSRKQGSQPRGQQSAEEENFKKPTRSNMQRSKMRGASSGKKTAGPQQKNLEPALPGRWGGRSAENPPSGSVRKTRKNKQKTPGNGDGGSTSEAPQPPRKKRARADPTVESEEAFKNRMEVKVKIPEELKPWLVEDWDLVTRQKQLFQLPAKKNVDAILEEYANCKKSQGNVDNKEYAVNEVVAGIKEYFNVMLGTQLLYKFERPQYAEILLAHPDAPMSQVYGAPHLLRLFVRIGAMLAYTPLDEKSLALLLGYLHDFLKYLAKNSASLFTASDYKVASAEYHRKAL
UniProt Q92993: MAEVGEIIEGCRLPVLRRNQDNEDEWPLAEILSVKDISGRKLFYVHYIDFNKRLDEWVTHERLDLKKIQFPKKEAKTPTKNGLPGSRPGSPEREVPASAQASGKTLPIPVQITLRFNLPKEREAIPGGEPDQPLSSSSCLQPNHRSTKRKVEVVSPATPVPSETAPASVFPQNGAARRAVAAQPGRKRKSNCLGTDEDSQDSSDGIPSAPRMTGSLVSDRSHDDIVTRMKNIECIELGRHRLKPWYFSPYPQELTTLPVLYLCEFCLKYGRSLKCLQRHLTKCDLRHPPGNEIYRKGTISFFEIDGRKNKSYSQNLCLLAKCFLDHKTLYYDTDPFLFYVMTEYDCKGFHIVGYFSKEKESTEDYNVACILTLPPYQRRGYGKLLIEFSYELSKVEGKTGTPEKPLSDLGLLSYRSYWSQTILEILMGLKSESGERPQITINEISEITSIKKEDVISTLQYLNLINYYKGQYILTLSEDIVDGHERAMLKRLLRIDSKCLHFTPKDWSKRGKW
UniProt Q9Y4A5: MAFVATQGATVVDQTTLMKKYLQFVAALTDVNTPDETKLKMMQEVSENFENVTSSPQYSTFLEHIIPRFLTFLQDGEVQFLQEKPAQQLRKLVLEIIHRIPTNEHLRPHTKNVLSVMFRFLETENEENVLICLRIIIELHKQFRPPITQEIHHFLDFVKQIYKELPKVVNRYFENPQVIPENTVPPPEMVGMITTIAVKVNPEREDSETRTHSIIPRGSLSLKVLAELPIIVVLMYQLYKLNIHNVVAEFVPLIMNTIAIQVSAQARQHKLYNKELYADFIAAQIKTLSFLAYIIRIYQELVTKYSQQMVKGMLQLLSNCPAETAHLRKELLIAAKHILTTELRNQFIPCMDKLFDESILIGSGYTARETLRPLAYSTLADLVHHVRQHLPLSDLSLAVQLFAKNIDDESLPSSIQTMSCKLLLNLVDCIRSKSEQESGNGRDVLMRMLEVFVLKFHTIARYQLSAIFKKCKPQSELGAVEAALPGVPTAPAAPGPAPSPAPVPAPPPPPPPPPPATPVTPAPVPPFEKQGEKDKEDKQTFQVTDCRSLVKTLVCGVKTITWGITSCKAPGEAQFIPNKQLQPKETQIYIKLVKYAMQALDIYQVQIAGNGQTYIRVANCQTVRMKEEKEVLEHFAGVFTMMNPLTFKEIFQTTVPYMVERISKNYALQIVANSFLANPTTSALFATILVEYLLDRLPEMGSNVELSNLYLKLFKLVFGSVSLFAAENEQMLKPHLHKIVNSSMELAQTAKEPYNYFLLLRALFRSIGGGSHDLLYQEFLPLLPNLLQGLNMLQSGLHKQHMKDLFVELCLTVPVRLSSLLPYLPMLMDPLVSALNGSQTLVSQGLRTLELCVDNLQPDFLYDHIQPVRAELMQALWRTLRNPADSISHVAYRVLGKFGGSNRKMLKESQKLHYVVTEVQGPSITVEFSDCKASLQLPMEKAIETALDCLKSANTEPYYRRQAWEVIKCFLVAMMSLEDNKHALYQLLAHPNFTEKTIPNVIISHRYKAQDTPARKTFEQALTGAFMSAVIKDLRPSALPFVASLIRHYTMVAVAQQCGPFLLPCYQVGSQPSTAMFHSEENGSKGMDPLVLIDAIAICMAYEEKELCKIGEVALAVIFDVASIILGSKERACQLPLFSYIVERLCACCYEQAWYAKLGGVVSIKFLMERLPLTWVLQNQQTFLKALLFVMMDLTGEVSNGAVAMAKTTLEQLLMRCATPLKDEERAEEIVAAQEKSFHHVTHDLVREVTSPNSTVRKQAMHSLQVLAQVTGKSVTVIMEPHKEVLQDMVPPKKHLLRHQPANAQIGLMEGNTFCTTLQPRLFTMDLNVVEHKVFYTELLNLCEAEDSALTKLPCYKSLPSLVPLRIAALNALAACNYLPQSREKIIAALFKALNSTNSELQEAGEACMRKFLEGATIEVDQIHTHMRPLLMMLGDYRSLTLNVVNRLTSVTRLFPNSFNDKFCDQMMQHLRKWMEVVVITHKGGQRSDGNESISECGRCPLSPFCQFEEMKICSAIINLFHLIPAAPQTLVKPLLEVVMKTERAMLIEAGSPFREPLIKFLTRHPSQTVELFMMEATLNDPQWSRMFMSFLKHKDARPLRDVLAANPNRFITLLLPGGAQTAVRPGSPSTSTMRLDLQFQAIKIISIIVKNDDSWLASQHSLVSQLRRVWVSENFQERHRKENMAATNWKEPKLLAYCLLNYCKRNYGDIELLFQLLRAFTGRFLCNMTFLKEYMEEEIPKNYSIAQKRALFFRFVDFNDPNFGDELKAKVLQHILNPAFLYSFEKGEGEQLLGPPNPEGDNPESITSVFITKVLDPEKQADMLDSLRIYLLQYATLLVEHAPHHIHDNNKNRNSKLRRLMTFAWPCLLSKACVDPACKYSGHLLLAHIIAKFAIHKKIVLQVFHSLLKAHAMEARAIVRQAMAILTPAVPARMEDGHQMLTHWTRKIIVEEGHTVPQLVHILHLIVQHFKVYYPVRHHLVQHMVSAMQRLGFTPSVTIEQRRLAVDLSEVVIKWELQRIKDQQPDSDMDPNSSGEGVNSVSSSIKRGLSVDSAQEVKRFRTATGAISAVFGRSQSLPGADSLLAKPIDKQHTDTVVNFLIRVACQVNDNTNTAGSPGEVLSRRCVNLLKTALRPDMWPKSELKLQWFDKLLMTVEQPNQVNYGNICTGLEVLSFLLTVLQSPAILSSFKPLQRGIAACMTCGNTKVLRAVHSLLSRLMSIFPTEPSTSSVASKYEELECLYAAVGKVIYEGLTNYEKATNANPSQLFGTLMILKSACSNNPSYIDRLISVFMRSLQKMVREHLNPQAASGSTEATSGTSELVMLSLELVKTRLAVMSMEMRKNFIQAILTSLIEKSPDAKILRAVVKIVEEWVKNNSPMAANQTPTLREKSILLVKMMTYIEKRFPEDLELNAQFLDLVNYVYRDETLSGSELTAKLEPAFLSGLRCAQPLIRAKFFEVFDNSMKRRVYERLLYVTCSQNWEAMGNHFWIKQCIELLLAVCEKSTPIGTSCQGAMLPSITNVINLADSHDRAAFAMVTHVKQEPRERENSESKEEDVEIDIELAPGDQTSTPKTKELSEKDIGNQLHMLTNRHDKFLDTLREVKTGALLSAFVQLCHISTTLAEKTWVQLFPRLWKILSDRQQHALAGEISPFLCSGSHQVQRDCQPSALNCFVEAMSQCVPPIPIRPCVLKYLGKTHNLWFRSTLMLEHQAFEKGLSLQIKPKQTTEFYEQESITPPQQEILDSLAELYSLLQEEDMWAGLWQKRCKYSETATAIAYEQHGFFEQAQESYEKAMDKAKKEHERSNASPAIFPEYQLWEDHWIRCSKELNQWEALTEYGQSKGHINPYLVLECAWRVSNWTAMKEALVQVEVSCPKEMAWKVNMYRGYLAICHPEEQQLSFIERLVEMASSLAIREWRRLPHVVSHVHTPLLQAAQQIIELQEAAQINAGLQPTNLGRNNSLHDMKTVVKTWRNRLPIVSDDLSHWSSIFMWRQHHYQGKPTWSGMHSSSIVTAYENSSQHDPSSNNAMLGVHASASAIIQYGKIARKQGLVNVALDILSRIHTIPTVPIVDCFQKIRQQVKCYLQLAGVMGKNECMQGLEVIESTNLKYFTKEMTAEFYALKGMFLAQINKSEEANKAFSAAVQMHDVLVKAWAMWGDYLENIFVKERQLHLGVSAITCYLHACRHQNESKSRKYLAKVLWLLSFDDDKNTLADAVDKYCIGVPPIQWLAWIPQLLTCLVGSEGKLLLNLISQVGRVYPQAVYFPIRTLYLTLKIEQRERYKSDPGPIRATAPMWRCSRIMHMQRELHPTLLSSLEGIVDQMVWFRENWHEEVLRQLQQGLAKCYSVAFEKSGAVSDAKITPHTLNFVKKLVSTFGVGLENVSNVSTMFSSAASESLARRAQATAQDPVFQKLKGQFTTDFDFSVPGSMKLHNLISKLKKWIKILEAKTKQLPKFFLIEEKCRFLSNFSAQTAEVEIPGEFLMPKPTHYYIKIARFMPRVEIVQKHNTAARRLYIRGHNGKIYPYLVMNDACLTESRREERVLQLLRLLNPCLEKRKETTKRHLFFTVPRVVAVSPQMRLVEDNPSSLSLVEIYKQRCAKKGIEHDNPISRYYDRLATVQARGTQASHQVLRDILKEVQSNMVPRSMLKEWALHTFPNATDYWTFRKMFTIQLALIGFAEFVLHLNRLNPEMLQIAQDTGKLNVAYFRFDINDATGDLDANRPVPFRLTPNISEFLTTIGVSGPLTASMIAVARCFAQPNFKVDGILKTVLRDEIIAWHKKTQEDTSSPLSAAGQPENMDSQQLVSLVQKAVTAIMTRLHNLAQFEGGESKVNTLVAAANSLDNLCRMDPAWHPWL

The target of the assay is Mortality factor 4 like 2 (MORF4L2) (UniProt Q15014). The assay is described as follows: co-IP; cells lysed in pre-cooled NP-40 lysis buffer with PMSF; supernatant incubated overnight at 4 °C with anti-MORF4L2 or IgG, then protein A/G beads for 2 h; washed 3 times; immunoblot; cell line not stated. In general terms: A western blot detects proteins with antibodies after separation by electrophoresis.

Take “lysine acetyltransferase 5 (TIP60/KAT5) (from UniProt Q92993 1-513)”: the binding entry is “binds”.

Take “transformation/transcription domain-associated protein (TRRAP) (from UniProt Q9Y4A5 1-3859)”: the binding entry is “binds”.

Source of the values: publication PMC11715975.
